Reference: article PMC12120661, “Synthesis and Biological Evaluation of 4‑(4-Nitrophenyl)‑1H‑1,2,3-triazole Derivatives as Antitrypanosomal Agents” (ACS Omega, 2025)

Test system: MRC-5SV2 (human lung fibroblast) cells
Test: Preliminary cytotoxicity assay, resazurin
Format: cell-based
Conditions: read-out: Reference validation IC50 (MRC-5)
Experimental: MRC-5SV2 cell cytotoxicity was assessed following the methodology outlined in earlier literature. Briefly, cells at a concentration of 1.5 × 10^5 cells/mL were cultured with compound dilutions at 37 °C and 5% CO2. Cell growth was compared to untreated-control wells (100% cell growth) and medium-control wells (0% cell growth). After 3 days of incubation, cell viability was fluorometrically assessed following the addition of 50-μL resazurin per well. Fluorescence was measured after 4 h at 37 °C (λex 550 nm, λem 590 nm). The results were expressed as the percentage reduction in cell growth/viability compared to control wells, and an IC50 value was determined.

`CC/C(=C(\c1ccccc1)c1ccc(OCCN(C)C)cc1)c1ccccc1` [tamoxifen, reference compound] was tested, and the IC50 was 11.4 µM.
